Data taken from PMC8590693.

Target: recombinant C-terminal domain of HSP90α (UniProt P07900)
Experiment: AlphaScreen or HTRF; HSP90α (C-Terminal) Inhibitor Screening Assay Kit (BPS Bioscience); Optiplate-384; AlphaScreen microplate reader; control sample and samples with novobiocin, geldanamycin or NCT-58 (500 μM each); both purified

Substance: peptidylprolyl isomerase D (from UniProt Q08752 1-370)
- binding: binds

No constants are given. Whether binding was seen depends on the method and setting. Binding can be weak; no strength is given.
